Results as given in article PMC12445503, “Sclareol and cinnarizine are non-selective inhibitors of voltage-gated Cav1.3 L-type Ca^2+ channels” (Channels, 2025).

By UniProt entry, the sequences of proteins in these tests, tags left out.
UniProt Q01668, whole entry: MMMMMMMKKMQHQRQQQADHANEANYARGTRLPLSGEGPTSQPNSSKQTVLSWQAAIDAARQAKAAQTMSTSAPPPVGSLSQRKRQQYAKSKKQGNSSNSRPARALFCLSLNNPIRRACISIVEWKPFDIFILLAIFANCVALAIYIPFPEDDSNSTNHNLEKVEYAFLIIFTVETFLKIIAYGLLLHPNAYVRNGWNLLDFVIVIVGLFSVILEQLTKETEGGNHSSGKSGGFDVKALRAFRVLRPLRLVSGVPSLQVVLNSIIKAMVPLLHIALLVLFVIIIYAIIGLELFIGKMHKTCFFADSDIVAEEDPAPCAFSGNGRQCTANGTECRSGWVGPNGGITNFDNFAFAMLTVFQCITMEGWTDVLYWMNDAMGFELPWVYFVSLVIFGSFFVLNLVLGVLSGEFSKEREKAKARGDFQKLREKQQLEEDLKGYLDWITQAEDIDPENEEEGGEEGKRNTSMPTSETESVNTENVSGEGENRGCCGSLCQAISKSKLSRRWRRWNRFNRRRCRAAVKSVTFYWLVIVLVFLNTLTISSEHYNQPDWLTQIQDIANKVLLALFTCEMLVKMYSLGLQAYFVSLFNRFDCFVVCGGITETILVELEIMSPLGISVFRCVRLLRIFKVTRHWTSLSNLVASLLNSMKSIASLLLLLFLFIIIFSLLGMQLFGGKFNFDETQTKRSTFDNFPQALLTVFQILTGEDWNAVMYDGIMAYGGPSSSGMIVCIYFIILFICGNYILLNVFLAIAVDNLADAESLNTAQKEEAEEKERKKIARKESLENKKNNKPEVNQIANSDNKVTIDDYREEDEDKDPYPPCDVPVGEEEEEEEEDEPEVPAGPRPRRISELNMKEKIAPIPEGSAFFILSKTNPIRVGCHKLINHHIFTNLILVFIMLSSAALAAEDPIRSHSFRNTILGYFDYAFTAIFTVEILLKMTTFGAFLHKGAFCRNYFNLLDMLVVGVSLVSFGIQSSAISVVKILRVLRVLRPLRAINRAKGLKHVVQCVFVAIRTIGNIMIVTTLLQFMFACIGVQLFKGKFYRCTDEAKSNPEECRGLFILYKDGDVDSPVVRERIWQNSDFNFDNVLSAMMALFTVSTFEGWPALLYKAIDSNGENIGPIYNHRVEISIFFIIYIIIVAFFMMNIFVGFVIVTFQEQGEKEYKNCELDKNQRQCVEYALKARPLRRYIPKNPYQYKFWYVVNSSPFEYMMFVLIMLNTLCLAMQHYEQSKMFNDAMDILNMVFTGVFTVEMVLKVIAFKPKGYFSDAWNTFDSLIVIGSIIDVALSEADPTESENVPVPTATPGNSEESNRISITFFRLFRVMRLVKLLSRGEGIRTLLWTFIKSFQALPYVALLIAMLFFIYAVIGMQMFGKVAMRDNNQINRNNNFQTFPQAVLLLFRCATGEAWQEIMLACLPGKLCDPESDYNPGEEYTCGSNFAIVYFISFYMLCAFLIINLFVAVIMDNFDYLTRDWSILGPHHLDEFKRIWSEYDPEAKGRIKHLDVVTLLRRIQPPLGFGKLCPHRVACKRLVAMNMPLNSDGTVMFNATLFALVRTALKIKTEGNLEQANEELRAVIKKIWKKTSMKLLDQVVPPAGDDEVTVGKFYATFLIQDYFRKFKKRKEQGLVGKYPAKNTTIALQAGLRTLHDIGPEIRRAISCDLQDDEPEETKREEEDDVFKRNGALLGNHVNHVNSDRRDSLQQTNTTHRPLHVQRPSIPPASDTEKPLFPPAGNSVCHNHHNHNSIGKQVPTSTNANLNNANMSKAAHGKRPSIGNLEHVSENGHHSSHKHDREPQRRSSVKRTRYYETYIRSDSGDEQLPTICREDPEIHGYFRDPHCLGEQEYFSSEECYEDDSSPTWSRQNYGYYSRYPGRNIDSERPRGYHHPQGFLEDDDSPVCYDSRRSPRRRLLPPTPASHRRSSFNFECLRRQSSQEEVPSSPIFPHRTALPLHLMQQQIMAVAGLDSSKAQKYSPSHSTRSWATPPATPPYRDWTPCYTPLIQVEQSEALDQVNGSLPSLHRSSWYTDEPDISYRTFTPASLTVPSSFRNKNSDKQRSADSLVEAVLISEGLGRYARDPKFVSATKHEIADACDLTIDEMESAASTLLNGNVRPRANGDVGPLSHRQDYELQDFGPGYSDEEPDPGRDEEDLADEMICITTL
UniProt Q13936, whole entry: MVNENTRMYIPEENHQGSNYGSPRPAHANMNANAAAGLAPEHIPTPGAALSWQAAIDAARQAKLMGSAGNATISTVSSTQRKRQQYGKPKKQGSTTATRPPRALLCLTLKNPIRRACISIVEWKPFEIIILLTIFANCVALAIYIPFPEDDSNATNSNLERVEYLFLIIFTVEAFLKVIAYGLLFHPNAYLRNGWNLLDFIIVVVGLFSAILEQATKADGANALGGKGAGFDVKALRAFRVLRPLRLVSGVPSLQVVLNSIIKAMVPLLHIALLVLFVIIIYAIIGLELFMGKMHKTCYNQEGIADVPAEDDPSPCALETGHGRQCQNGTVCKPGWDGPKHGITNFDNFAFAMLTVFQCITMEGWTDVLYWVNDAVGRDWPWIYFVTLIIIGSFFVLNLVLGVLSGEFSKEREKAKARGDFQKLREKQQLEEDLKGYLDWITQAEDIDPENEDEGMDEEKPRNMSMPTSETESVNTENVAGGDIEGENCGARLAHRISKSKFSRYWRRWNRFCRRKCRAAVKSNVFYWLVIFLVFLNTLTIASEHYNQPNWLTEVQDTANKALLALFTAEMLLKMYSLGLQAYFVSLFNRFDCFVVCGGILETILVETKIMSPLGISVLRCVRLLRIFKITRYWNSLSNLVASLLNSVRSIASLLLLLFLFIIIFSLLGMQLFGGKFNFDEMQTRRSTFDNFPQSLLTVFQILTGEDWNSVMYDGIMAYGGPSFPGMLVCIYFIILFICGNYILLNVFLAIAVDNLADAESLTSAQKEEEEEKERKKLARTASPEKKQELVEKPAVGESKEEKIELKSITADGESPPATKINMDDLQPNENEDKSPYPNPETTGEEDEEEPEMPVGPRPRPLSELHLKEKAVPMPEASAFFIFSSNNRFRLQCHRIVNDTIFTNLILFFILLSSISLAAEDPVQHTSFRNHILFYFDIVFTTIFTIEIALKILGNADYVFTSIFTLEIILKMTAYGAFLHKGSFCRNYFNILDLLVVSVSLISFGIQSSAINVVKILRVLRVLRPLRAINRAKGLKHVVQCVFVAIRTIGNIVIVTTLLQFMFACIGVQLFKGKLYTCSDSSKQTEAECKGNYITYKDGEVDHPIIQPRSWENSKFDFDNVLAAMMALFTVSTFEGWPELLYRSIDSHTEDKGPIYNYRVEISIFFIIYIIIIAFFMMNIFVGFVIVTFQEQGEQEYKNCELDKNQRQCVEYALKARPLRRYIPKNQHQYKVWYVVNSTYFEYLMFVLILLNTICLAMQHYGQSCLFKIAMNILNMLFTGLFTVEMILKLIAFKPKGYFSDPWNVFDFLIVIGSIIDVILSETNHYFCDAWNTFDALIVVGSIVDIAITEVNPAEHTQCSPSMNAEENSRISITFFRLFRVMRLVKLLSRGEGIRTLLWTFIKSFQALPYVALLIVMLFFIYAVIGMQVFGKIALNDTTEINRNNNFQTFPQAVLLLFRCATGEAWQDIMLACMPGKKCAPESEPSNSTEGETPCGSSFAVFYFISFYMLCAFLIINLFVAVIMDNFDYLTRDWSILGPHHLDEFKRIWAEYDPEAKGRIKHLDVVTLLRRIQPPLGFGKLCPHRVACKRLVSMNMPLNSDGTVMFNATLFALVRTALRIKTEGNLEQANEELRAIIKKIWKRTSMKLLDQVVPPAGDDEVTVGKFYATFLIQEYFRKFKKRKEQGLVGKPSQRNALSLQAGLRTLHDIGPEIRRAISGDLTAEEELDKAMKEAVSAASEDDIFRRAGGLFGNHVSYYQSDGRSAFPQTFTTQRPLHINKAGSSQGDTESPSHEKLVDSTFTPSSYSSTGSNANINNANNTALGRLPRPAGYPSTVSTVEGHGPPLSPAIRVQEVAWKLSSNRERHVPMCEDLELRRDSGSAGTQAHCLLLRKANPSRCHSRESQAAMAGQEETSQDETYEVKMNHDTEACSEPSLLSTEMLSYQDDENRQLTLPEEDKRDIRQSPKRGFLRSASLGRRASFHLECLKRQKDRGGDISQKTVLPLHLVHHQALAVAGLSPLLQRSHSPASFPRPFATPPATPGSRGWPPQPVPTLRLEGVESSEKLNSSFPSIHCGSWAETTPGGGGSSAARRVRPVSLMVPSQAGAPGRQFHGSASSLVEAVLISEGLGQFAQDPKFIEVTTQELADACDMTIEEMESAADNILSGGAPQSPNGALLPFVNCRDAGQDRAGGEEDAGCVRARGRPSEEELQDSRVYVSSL

Columns and labels:
Cav1.3 = Cav1.3 (Homo sapiens, UniProt Q01668); experiment: cell-based; parameters: gene CACNA1D; settings: read-out: % remaining current at 3 μM (1 Hz)
Cav1.2 = Cav1.2 (Homo sapiens, UniProt Q13936); experiment: cell-based; parameters: gene CACNA1C; settings: read-out: % remaining current at 3 μM (1 Hz)

With `C(=C\c1ccccc1)/CN1CCN(C(c2ccccc2)c2ccccc2)CC1` [cinnarizine] the remaining activity at 3 µM (Cav1.3) was 16.8 ± 3.9% and the remaining activity at 3 µM (Cav1.2) was 35.6 ± 12.4%.
